From patent US4500707A, “Nucleosides useful in the preparation of polynucleotides” (University Patents, Inc., priority 1982, dated 1985)
At least one compound was matched to its structure with a doubt left.

Experiment: Rate of detritylation of various tritylthymidines using saturated ZnBr2 in nitromethane at 0° C. (Table IV)
Type: physicochemical
Conditions: for % Detritylation: at the time of the same line (1, 10 or 30 min); for Detritylation time: time for the % detritylation of the same line
Source text: The procedure merely requires contacting the reactants preferably in a reaction solvent and detritylation occurs within short reaction times. The Lewis acid is normally suspended in the reaction solvent and the solvent is usually water-free to prevent reaction with the Lewis acid to form protic acids. In present experience, nitromethane is the preferred solvent although a variety of other solvents can be used, e.g. dioxane and tetrahydrofuran and mixtures of such solvents with each other and other solvents such as acetone, methylene chloride, and the like.
and at 0° C. in Table IV.
The Rate of Detritylation of Various Tritylthymidines
Using Saturated ZnBr2 in Nitromethane at 0° C.

COc1ccc(C(O[C@H]2C[C@H](n3cc(C)c(=O)[nH]c3=O)O[C@@H]2CO)(c2ccccc2)c2ccccc2)cc1 [3'-Monomethoxytritylthymidine]
% Detritylation: 10%
Detritylation time: 30 min

COc1ccc(C(OC[C@H]2O[C@@H](n3cc(C)c(=O)[nH]c3=O)C[C@@H]2O)(c2ccccc2)c2ccccc2)cc1 [5'-Monomethoxytritylthymidine]
% Detritylation: 50%
Detritylation time: 1 min
